From PubChem BioAssay AID493014 (National Center for Advancing Translational Sciences (NCATS), 2011)
The other results are listed elsewhere or left out. These are further read-outs of the screen, such as a control signal, another cell line or another target. No call is given for them. The list favours compounds with an active or inconclusive main result. The note in brackets gives the kind of curve behind each potency; many fits are weak.

Experiment: qHTS Assay to Find Inhibitors of Chronic Active B-Cell Receptor Signaling
Settings: ABC-DLBCL IkBa-CBG/CBR reporter, luminescence ratio (green luciferase fused to IkBa over red control in TMD8 lymphoma cells), 4 h
Outline: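 Doxycycline induced both beetle luciferases in TMD8 lymphoma cells; IKK-driven degradation limits the IkappaBalpha-fused green signal, while red luminescence normalises for cell number and nonspecific effects. Compounds tested up to 46 uM, 4 hrs.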

[1] = measured here: CBR red luminescence, cell number
[2] = measured here: IkBa-CBG green luminescence

SMILES	AC50 [1]	AC50 [2]
CCn1c2ccccc2c2cc(NC(=O)C(C)C)ccc21	7.08 µM [rising, partial curve]	–
COc1cc(/C=N/NC(=O)c2cccs2)ccc1O	14.1 µM [falling, partial curve]	–
Cc1ccc(N/C=C/C(=O)c2ccccc2)cc1C	0.411 µM [falling, full curve]	–
CCOCCCNC(=O)C(c1ccc(OC)cc1)N(Cc1cccs1)C(=O)c1ccccn1 (stereo unspecified)	14.1 µM [rising, partial curve, poor fit]	–
Cc1ccc(C2=NN(S(=O)(=O)c3ccccc3)C(c3ccccc3O)C2)cc1 (stereo unspecified)	15.8 µM [falling, partial curve, poor fit]	–
O=C(Nc1cccc(NC(=O)c2ccccc2[N+](=O)[O-])c1)c1ccccc1Cl	6.31 µM [rising, single point]	–
CC(NC(=O)c1ccco1)C1CCCO1 (stereo unspecified)	7.31 µM [falling, partial curve]	–
O=C(Nc1ccc2nc3n(c(=O)c2c1)CCCCC3)C(=O)N1CCN(c2ccccc2)CC1	17.8 µM [rising, partial curve]	–
Cc1c(C(=O)OCC(C)(C)CN(C)C)oc2ccccc12	6.51 µM [rising, partial curve, poor fit]	–
C#CCOc1ccc(/C=N/O)cc1Cl	4.11 µM [rising, full curve]	–
NS(=O)(=O)c1cccn1-c1ncc(C(F)(F)F)cc1Cl	0.00517 µM [falling, full curve, poor fit]	–
CCOc1ccc(NC(=O)CN2CCN(CC(=O)Nc3ccc(N(C)C)cc3)CC2)cc1	35.5 µM [rising, single point]	–
CSc1ccccc1OCc1cc(C(=O)NC(C)CCn2cccn2)no1 (stereo unspecified)	7.08 µM [falling, partial curve, poor fit]	–
Clc1ccc2c(N/N=C/c3cccc(Br)c3)ccnc2c1	1.16 µM [rising, full curve, poor fit]	–
CCOC(=O)C1(Cc2cccc(OC)c2)CCN(Cc2ccc(OC)c(OC)c2)CC1	12.6 µM [falling, partial curve, poor fit]	–
COc1ccc(C[C@H]2CN3C(=NC[C@@H]3Cc3ccc(O)cc3)N2C[C@H](C)NC(=O)CCC2CCCCC2)cc1	12.6 µM [falling, partial curve]	–
CCOCCCn1c(=NC(=O)c2ccc(OC)c(OC)c2)c(C#N)cc2c(=O)n3cccc(C)c3nc21	1.3 µM [rising, full curve, poor fit]	–
CC(=O)Nc1ccccc1OCC(=O)c1cc(C)n(Cc2cccs2)c1C	10.3 µM [rising, partial curve, poor fit]	–
CCOC(=O)CSc1nnc(NC(=O)c2ccco2)s1	5.01 µM [falling, full curve]	–
Cc1c(NC(=O)C(C)Sc2ncnc3ccccc23)c(=O)n(-c2ccccc2)n1C (stereo unspecified)	11.2 µM [falling, partial curve, poor fit]	–
CC(C)C(c1nnnn1C1CCCCC1)N1CCOCC1 (stereo unspecified)	10 µM [rising, partial curve, poor fit]	–

For reference, part of the list above:
SMILES	AC50 [1]	AC50 [2]
Cc1ccc(N/C=C/C(=O)c2ccccc2)cc1C	0.411 µM [falling, full curve]	–
CCOCCCNC(=O)C(c1ccc(OC)cc1)N(Cc1cccs1)C(=O)c1ccccn1 (stereo unspecified)	14.1 µM [rising, partial curve, poor fit]	–
Cc1ccc(C2=NN(S(=O)(=O)c3ccccc3)C(c3ccccc3O)C2)cc1 (stereo unspecified)	15.8 µM [falling, partial curve, poor fit]	–
O=C(Nc1cccc(NC(=O)c2ccccc2[N+](=O)[O-])c1)c1ccccc1Cl	6.31 µM [rising, single point]	–
CC(NC(=O)c1ccco1)C1CCCO1 (stereo unspecified)	7.31 µM [falling, partial curve]	–
O=C(Nc1ccc2nc3n(c(=O)c2c1)CCCCC3)C(=O)N1CCN(c2ccccc2)CC1	17.8 µM [rising, partial curve]	–
Cc1c(C(=O)OCC(C)(C)CN(C)C)oc2ccccc12	6.51 µM [rising, partial curve, poor fit]	–
C#CCOc1ccc(/C=N/O)cc1Cl	4.11 µM [rising, full curve]	–
NS(=O)(=O)c1cccn1-c1ncc(C(F)(F)F)cc1Cl	0.00517 µM [falling, full curve, poor fit]	–
CCOc1ccc(NC(=O)CN2CCN(CC(=O)Nc3ccc(N(C)C)cc3)CC2)cc1	35.5 µM [rising, single point]	–
CSc1ccccc1OCc1cc(C(=O)NC(C)CCn2cccn2)no1 (stereo unspecified)	7.08 µM [falling, partial curve, poor fit]	–
Clc1ccc2c(N/N=C/c3cccc(Br)c3)ccnc2c1	1.16 µM [rising, full curve, poor fit]	–
CCOC(=O)C1(Cc2cccc(OC)c2)CCN(Cc2ccc(OC)c(OC)c2)CC1	12.6 µM [falling, partial curve, poor fit]	–
COc1ccc(C[C@H]2CN3C(=NC[C@@H]3Cc3ccc(O)cc3)N2C[C@H](C)NC(=O)CCC2CCCCC2)cc1	12.6 µM [falling, partial curve]	–
CCOCCCn1c(=NC(=O)c2ccc(OC)c(OC)c2)c(C#N)cc2c(=O)n3cccc(C)c3nc21	1.3 µM [rising, full curve, poor fit]	–
CC(=O)Nc1ccccc1OCC(=O)c1cc(C)n(Cc2cccs2)c1C	10.3 µM [rising, partial curve, poor fit]	–
CCOC(=O)CSc1nnc(NC(=O)c2ccco2)s1	5.01 µM [falling, full curve]	–
Cc1c(NC(=O)C(C)Sc2ncnc3ccccc23)c(=O)n(-c2ccccc2)n1C (stereo unspecified)	11.2 µM [falling, partial curve, poor fit]	–
CC(C)C(c1nnnn1C1CCCCC1)N1CCOCC1 (stereo unspecified)	10 µM [rising, partial curve, poor fit]	–

(further entries)

SMILES	AC50 [1]	AC50 [2]
COc1ccc(NC(=S)NC2CCCC2)c(OC)c1	10 µM [falling, partial curve, poor fit]	–
O=C(NC1CC(=O)N(c2ccc(F)cc2)C1)c1ccc(S(=O)(=O)N2CCCC2)cc1 (stereo unspecified)	35.5 µM [falling, single point]	–
CC(=O)/C=C/c1ccccc1O	35.5 µM [falling, single point]	–
Cc1cccc2c(=O)cc(C(F)(F)F)[nH]c12	35.5 µM [falling, single point]	–
CN1CCN(CCCNC(=O)c2ccc(/C=C3\Oc4ccccc4N(Cc4ccc(Cl)cc4)C3=O)cc2)CC1	14.1 µM [falling, single point]	–
Cc1cnc(=O)[nH]c1SCc1cccc([N+](=O)[O-])c1	4.47 µM [falling, full curve, poor fit]	–
N#CCC(=O)Nc1ccc(C(=O)OCC(=O)c2c[nH]c3ccccc23)cc1	2.91 µM [falling, single point]	–
c1ccc(Cn2nnnc2C(c2cccnc2)N2CCN(c3ccccc3)CC2)cc1 (stereo unspecified)	20 µM [falling, single point]	12.6 µM [rising, partial curve, poor fit]
Cc1ccc2[nH]c(=O)c(-c3nc4c(C)cccn4c3NCc3ccco3)cc2c1	35.5 µM [falling, single point]	–
NC(=NCCc1c[nH]c2ccccc12)NC(=O)c1ccc(F)cc1	3.55 µM [rising, single point]	–
CN1CCN(C(=O)C2=C[C@@H](c3ccc4c(c3)OCO4)C[C@@H](OCc3ccc(CO)cc3)O2)CC1	22.4 µM [rising, single point]	–
COc1cc(NC(=O)CN(C)C2CCCCC2)c(C)cc1[N+](=O)[O-]	29.1 µM [falling, single point]	29.1 µM [rising, partial curve, poor fit]
Cc1ccc(CN2CCN(C(=O)c3ccncc3)CC2)cc1	0.708 µM [rising, full curve, poor fit]	–
CCC(=O)Nc1nnc(Cc2ccccc2)s1	5.8 µM [rising, partial curve]	–
COc1ccc(OC)c(S(=O)(=O)NC(C)(C)C)c1	29.1 µM [rising, single point]	–
Cc1c(Cl)cccc1N1CC(C)(C)C1=O	35.5 µM [rising, single point]	–
CCOc1cc2[nH]c(=O)n(Cc3cccc(OC)c3)c(=O)c2cc1OCC	0.708 µM [falling, partial curve, poor fit]	–
S=C(Nc1ccccc1)N1CCc2ccccc21	22.4 µM [rising, partial curve, poor fit]	–
CC1Cc2cc(/C=C3/SC(=S)N(C)C3=O)ccc2O1 (stereo unspecified)	12.6 µM [rising, partial curve]	–
COC(=O)c1cnn(-c2ccc(Cl)cc2)c1/C=N/NC(N)=S	2.82 µM [falling, full curve]	–
Cn1cc(C(=O)N/N=C/c2cc(Br)cs2)c2ccccc21	3.16 µM [rising, partial curve, poor fit]	–

SMILES	AC50 [1]	AC50 [2]
Cc1cccc(N=C2NN=C(c3ccc4c(c3)OCCO4)CS2)c1	12.6 µM [falling, partial curve]	–
C[C@]12C(=O)N(c3ccc(F)cc3)C(=O)N1[C@H]1c3ccccc3OC[C@@H]1[C@H]2c1ccccc1	0.092 µM [falling, full curve, poor fit]	–
CCOC(=O)c1ccc(COC(=O)c2cc(=O)[nH]c3ccccc23)o1	6.51 µM [falling, partial curve, poor fit]	–
O=C(COC(=O)c1cncc(Br)c1)NCc1ccccc1	3.16 µM [rising, partial curve, poor fit]	–
CC1CCCCN1C(=O)Cn1cc(/C=C2/C(=O)Nc3ccccc32)c2ccccc21 (stereo unspecified)	12.6 µM [falling, partial curve, poor fit]	–
COc1ccc(/C=C/C(=O)O)cc1S(=O)(=O)NCc1ccccc1	35.5 µM [falling, single point]	–
COc1ccc(N2CC(C(=O)Nc3nc4ccc(OC)cc4s3)CC2=O)cc1 (stereo unspecified)	11.2 µM [falling, partial curve]	–
C/C(=C\c1ccccc1)CN1CCN(c2ccccc2)CC1	2.91 µM [rising, full curve, poor fit]	–
CCCOC(=O)c1ccc(NC(=O)CSC2=Nc3ccccc3C3CC=NN23)cc1 (stereo unspecified)	7.31 µM [falling, partial curve, poor fit]	–
Clc1ccc(OCCCN2CCCCC2)c(Br)c1	20 µM [falling, single point]	–
CCOC(=O)/C(C#N)=C(\O)c1ccc(NC(=O)c2ccc([N+](=O)[O-])cc2)cc1	1.41 µM [rising, partial curve, poor fit]	–
CCN(CC)c1ccc2cc(-c3nnc(-c4ccccc4)o3)c(=O)oc2c1	0.259 µM [falling, full curve, poor fit]	–
COC(=O)c1ccc(C(=O)OC)c(NC(=O)CSc2cccc[n+]2[O-])c1	3.55 µM [falling, single point]	3.16 µM [falling, full curve, poor fit]
CCN1C(=O)/C(=C2/Sc3ccc(OC)cc3N2C)SC1=Nc1ccc(OC)cc1	0.398 µM [rising, full curve, poor fit]	–
CC(=O)c1cccc(NC(=O)NCc2ccccn2)c1	20.6 µM [falling, partial curve, poor fit]	–
Cc1cc(-c2nc3ncccc3o2)ccc1NC(=S)NC(=O)c1ccco1	10 µM [rising, partial curve, poor fit]	–
CC(=O)C1=C(C)Nc2ncnn2C1c1ccccc1OCc1ccccc1 (stereo unspecified)	29.1 µM [falling, single point]	–
Cc1ccc(O)c(NC(=O)C2CC(c3c(F)cccc3Cl)=NO2)c1 (stereo unspecified)	15.8 µM [falling, partial curve, poor fit]	–
CCCCCSc1nnc(-c2ccccc2N)c(=O)[nH]1	20.6 µM [falling, single point]	–
c1cc(-c2nnn(CCOCCn3nnc(-c4ccncc4)n3)n2)ccn1	35.5 µM [rising, single point]	–
Cc1ccc2cc(S(=O)(=O)NCCCC(=O)O)ccc2c1	14.1 µM [falling, partial curve]	–
